Measured values taken from patent US5411969A, “Antihyperlipidemic/antioxidant dihydroquinolines” (Bristol-Myers Squibb Company, priority 1993, dated 1995).
At least one structure is not confirmed: it was looked up by name or label, or the drawing left a doubt.

System: LDL
Experiment: In vitro LDL oxidation (Cu++), conjugated diene formation
Type: biochemical
Settings: 10 μM, rabbit plasma LDL, treated/control lag time

## O=C1O[C@H]([C@@H](O)CO)C(O)=C1O [Ascorbate]
  LDL Oxd. Inhib. mean lag ratio: 1.00
